# The full ranking holds about 33,000 sequences; the median of “E-score (-0.5 to 0.5)” is about -0.0059, and the highest 2% start at about 0.26. This is one part of the list.
# Target: T1, Cin5 (UniProt P40917)
# T1 sequence: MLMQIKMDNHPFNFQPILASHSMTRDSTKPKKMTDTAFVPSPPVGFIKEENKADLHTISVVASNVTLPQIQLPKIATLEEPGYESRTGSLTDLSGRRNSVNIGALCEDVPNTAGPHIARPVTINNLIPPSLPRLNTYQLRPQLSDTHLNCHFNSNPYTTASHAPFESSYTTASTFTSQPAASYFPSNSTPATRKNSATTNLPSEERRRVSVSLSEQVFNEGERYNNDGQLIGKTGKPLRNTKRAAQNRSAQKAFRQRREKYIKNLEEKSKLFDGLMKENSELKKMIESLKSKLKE
# Assay: PBM E-score (8-mer binding enrichment) (E-score (-0.5 to 0.5)); higher = stronger / more preferred TF binding
# Conditions: protein concentration: 100 nM; construct: GST-full length
# Procedure, shortened: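 Full-length yeast transcription factors or their DNA-binding domains, GST-tagged and expressed with PURExpress, were applied at about 100-200 nM to universal all-10-mer Agilent arrays. These arrays had been made double-stranded by primer extension on fresh or once-stripped slides. Detection used fluorescent anti-GST, normalisation used masliner, and E-scores for ungapped eight-base words pooled with reverse complements came from the Universal PBM Analysis Suite.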
row,Sequence,PBM E-score
1,GTAAGAAA,0.131
2,CCAGACCG,-0.0813
3,ATTAGTGA,0.143
4,GTGAGTCA,0.00801
5,CATAACCA,0.133
6,AGCATTGG,0.0399
7,AGCCTCGC,-0.119
8,AACGAGTC,-0.105
9,GTACAAAC,0.0903
10,GCGTGGAA,0.106
11,GGCATGTA,0.00303
12,TATGGTAA,0.288
13,ATAATTAG,0.241
14,TCCCATCA,-0.142
15,AAAGCGTC,-0.113
16,ACCATGTG,0.116
17,ATCATGCC,0.0752
18,TGGAAGAA,0.0993
19,ACTCTACC,0.01
20,GGTGGTAA,0.108
21,AACCCAGG,-0.121
22,AGTCGGTA,-0.166
23,ATTGCGAA,-0.0775
24,GTCAAGTA,-0.221
25,AGTAAAAG,0.176

# Pulled one by one from the entries so far (4):
row,Sequence,PBM E-score
11,GGCATGTA,0.00303
2,CCAGACCG,-0.0813
16,ACCATGTG,0.116
12,TATGGTAA,0.288

# Next records follow.

row,Sequence,PBM E-score
1,GTCCACTA,0.0349
2,AAAGAGTG,-0.0649
3,CACTGCGC,-0.0301
4,CGAAAGTC,-0.0412
5,CAAAAGTG,0.111
6,CGCTGTCC,-0.0216
7,GAGACTCC,-0.114
8,AGGAGAGA,-0.159
9,GCATTCAC,0.114
10,ACATCGGC,-0.0361
11,AAGAATAA,0.0631
12,ACAATAGT,0.157
13,AACAGACG,-0.0493
14,AAACTTCG,-0.0351
15,GCAAAGAC,0.00763
16,ACTTGGAA,-0.0703
17,ACGGCAAG,-0.0312
18,ATCTGGCA,-0.0355
19,CCAGACGA,-0.176
20,AATGCCAC,-0.0464
21,GTCGTATA,0.103
22,CTACATGC,-0.0298
23,AAGGAGCT,-0.271
24,AATGGAAC,0.103
25,AAGAATAG,0.0681

row,Sequence,PBM E-score
1,ACCAGAGC,-0.0046
2,AACTCAAG,-0.0342
3,AGTTGGTA,0.18
4,ACTTGGCG,-0.0901
5,GCGACCCC,-0.283
6,CGAAAGCG,-0.206
7,AGGGCTCC,-0.351
8,GGGACATA,0.0818
9,ATCTCATG,0.155
10,CCTTGTCG,-0.0982
11,CGTCGTAC,-0.00206
12,ACTGGAGC,-0.253
13,GGCACGAA,0.0353
14,AATTAAGT,0.134
15,CAGATCTG,0.0178
16,CGACAAAC,-0.0642
17,AATTCAGA,0.00727
18,TGACCTCA,-0.0132
19,CACGGGGG,-0.401
20,CTTGGCAA,-0.22
21,GGAGTACA,-0.0949
22,CAATGCTG,-0.0255
23,GGAATTCA,0.175
24,ACAAAACT,0.155
25,CAAAAGCG,-0.0222

# No new results follow: entries from further up.
row,Sequence,PBM E-score
11,CGTCGTAC,-0.00206
12,ACTGGAGC,-0.253
13,GGCACGAA,0.0353

# Following part.

row,Sequence,PBM E-score
1,AATCTAGG,0.0824
2,ACAGTGTG,-0.00966
3,AGCGTGTA,-0.0888
4,CCAAAAGG,-0.274
5,GTTGATCA,0.152
6,GAATAGAC,-0.04
7,ACTGATGA,0.128
8,GAAACCGA,-0.0178
9,GTGGGTGA,0.0437
10,ACATAATA,0.364
11,CCTCAATC,-0.018
12,CCAGCAGA,-0.0643
13,CTGCAAGC,-0.23
14,CATCGGAG,-0.229
15,CTGATCAA,0.0587
16,GTCTGCCA,-0.228
17,AATCTGCC,0.0186
18,ACGAAACA,0.0947
19,ACTGGCCA,0.08
20,GTCTCCGA,-0.0909
21,AAATTAAA,0.214
22,GCATCAGA,0.102
23,AACGTCTT,-0.0374
24,GTACCCTA,0.0342
25,TATGTGCA,0.0166

row,Sequence,PBM E-score
1,CGCTGACG,0.094
2,TATAAACA,0.147
3,GCCGCTCC,-0.305
4,ACACCTGT,-0.0983
5,CAGTTTGA,0.1
6,CGCTGCAA,-0.0268
7,AAGGCGCT,-0.0988
8,AATTCTCT,-0.0757
9,GTCACAAA,-0.0564
10,CCCCGGAG,-0.131
11,GATAATTA,0.218
12,CACTGACG,-0.238
13,CGCTCAAA,0.00888
14,CCGTTCTC,-0.0505
15,CGCAGCCG,-0.234
16,AAATAGGA,0.162
17,AGAGGGTA,-0.0977
18,AACTGCTG,-0.0415
19,AGTGTACG,-0.109
20,AGCTACCG,-0.163
21,ATCCAATA,0.243
22,CGTTAGCC,0.0733
23,TAAGCGGA,0.197
24,CCCAACCC,0.0517
25,CAGAACTA,0.0448

row,Sequence,PBM E-score
1,ACGCCACT,0.0178
2,GATTGTGA,0.0821
3,GACAGCTC,-0.237
4,GTTGAGCA,0.0818
5,GAAAGGAC,0.0119
6,CGAAGCGC,-0.0599
7,TACTCTCA,0.0302
8,CCGAGCCC,-0.273
9,CGCCGGTC,-0.196
10,ATAGTTAA,0.103
11,AAAATTGA,0.056
12,AGTTTGCC,0.146
13,CCCTACCA,-0.115
14,CTACTGTA,0.12
15,TGGTCTAA,-0.153
16,GACAGGCC,-0.0725
17,GCGGCAGA,-0.189
18,CGAAAGGC,-0.122
19,ATCTAACC,0.137
20,AGAGGACA,-0.0578
21,GTGTCATA,0.0816
22,CGAAGGCG,0.0157
23,AGTTCGCA,0.0133
24,ATCGCGAC,0.0499
25,AACCGCAT,0.115

row,Sequence,PBM E-score
1,CCCAACGG,-0.0607
2,CCTGAGAG,-0.221
3,AAGCCACC,-0.287
4,ACCCGTTC,0.155
5,AATTGGCT,0.193
6,ACTAAACT,0.1
7,CGTTTAAC,0.0292
8,CGAGCTAG,0.124
9,ATGACAAA,0.226
10,CTACGGAA,0.0346
11,AACTTGAC,0.171
12,GCGCCGAC,-0.227
13,CCCTGCAC,-0.14
14,GCATTAGA,-0.0233
15,ATAAATCA,0.185
16,AGTGGAGC,-0.0806
17,TATGCCAA,-0.0278
18,CCGGTGAA,0.0284
19,AGGTGGCA,-0.0179
20,CGGAGCTA,-0.131
21,AGGGAGTC,-0.234
22,AAGGTCGT,-0.00655

# From the supplement of paper PMC3334620
